# Data taken from paper PMC7819943, “Rice protein-binding microarrays: a tool to detect cis-acting elements near promoter regions in rice”.
# This is one part of the list.
# Biological target: T1, OsSMF1 (Oryza sativa, UniProt Q6ZLB0 1-436)
# T1 sequence: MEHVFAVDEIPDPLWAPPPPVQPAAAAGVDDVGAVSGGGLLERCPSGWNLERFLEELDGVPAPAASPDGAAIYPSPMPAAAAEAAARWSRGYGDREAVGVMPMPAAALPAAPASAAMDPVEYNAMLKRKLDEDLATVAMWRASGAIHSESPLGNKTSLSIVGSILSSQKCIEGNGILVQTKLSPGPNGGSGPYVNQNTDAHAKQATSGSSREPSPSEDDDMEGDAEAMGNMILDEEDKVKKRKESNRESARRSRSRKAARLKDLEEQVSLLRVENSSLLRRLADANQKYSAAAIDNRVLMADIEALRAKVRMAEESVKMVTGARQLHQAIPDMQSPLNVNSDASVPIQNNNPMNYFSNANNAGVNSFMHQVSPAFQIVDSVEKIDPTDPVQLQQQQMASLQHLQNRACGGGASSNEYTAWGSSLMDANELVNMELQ
# Test: protein-binding microarray (RPBM); PBS, 2% BSA, 51.3 ng/ul salmon testes DNA, 50 uM zinc acetate, 200 nM TF, 25 C, 1 h; high values mean tight binding
# Conditions: protein: recombinant; tags: N-terminal polyhistidine and DsRed monomer fusion (pET32a); chain copies: 2; label: CyDye5-dUTP incorporated in the synthesized complementary strand; 3' TTTTT single-stranded linker to array surface; dsDNA, one strand shown
# In short: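 Using Ni–NTA, transcription factors fused N-terminally to polyhistidine and DsRed were purified after expression in E. coli BL21-CodonPlus. These were incubated at 200 nM with a blocked, double-stranded custom Agilent array for 1 h at 25 °C in a buffer containing 50 µM zinc acetate, and the array was washed. The binding signal is per-feature fluorescence intensity (arbitrary units) on an Axon 4000B scanner.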
row,Sequence,binding signal
1,CAGGATGTGTATTTCGATTCTTACACGTAATGTATATAAACGGAGTCACCTAGTGCAG,3280 fluorescence intensity (a.u.)
2,GTCGTAATAAATATGTTATGGGACGAAAGAGTATCTATTACGGAGTCACCTAGTGCAG,37700 fluorescence intensity (a.u.)
3,CACGCACACCAACTGCTCGCTGCTTATATAGCCTCAGGTCCGGAGTCACCTAGTGCAG,22400 fluorescence intensity (a.u.)
4,ATGTACACACTGATCCAACTAGTTTCACTTACATGTCACTCGGAGTCACCTAGTGCAG,3340 fluorescence intensity (a.u.)
5,TTTATTTCTACCGCCACGTAGGTGCCATGTCAATGTCACGCGGAGTCACCTAGTGCAG,14300 fluorescence intensity (a.u.)
6,GGAGGCCTGGTGCACGTTGAGGGTGAAGGATGGGCAGCGCCGGAGTCACCTAGTGCAG,3680 fluorescence intensity (a.u.)
7,GTGGCCTCTCACTTGAATGATGATCCACCTCATGAGAAGGCGGAGTCACCTAGTGCAG,4070 fluorescence intensity (a.u.)
8,ATTAGTTTTATTAAATCTTACATTGAATATATTTTGATAACGGAGTCACCTAGTGCAG,3390 fluorescence intensity (a.u.)
9,GCGGCGCCACGGCGACTATTCAGATCGACTCGACTCGACCCGGAGTCACCTAGTGCAG,3530 fluorescence intensity (a.u.)
10,TCTTGCACTACACATCAGATGATGATTATATGTATTACGTCGGAGTCACCTAGTGCAG,4920 fluorescence intensity (a.u.)
11,GGTGACGTCACTGCTCATTAAACCAACCAAGACCAAGTGTCGGAGTCACCTAGTGCAG,7860 fluorescence intensity (a.u.)
12,CACTTTAATACTCCCGTCTATCTAGATTCATTGTACTAAGCGGAGTCACCTAGTGCAG,3460 fluorescence intensity (a.u.)
13,CCAAAAGGCAGTATTTAGGTGCCGTACAGTGACTGCACGACGGAGTCACCTAGTGCAG,3320 fluorescence intensity (a.u.)
14,CGGCTAAGTCAGCGTGTGACCCACGTGGGACCTATATGTCCGGAGTCACCTAGTGCAG,7200 fluorescence intensity (a.u.)
15,CGGCAGTTGATGACGCGCCGCCGTATTTGGAAGGGAGCTCCGGAGTCACCTAGTGCAG,4100 fluorescence intensity (a.u.)
16,CTGCATCTACTGCTGCTGACAGCGGATCCTCTCCCTCGCGCGGAGTCACCTAGTGCAG,4720 fluorescence intensity (a.u.)
17,TTTTATCCGATGTGGTGGCTGAGTCAGCGTGGGACCCACACGGAGTCACCTAGTGCAG,18400 fluorescence intensity (a.u.)
18,TGCACTGAACCAAGTGTAATGCCGTCAAGATCATGATTGGCGGAGTCACCTAGTGCAG,3140 fluorescence intensity (a.u.)
19,CGATAAGCGTCGATTTGCAAGGGTGGTTCGTGGGCGAATGCGGAGTCACCTAGTGCAG,3980 fluorescence intensity (a.u.)
20,CGCGTCGCTACGTGGTCACGCGAACACCTGCACTGCAGTACGGAGTCACCTAGTGCAG,3360 fluorescence intensity (a.u.)
21,GCTATTTATCTCATATGATGTCTTGGATGTTGTGTAGAAACGGAGTCACCTAGTGCAG,40600 fluorescence intensity (a.u.)
22,TTTTCAGCTTGGGCTACGTCAGATTGCCGTCCCTTGAAGCCGGAGTCACCTAGTGCAG,5310 fluorescence intensity (a.u.)
23,GGTTTTAGAGTACGGTTTTGCTGACATGGGGCTTTGACCCCGGAGTCACCTAGTGCAG,7070 fluorescence intensity (a.u.)
24,GCGTGCCTCCGTTTTGCACAGTCATGCATGTCTTTACAGTCGGAGTCACCTAGTGCAG,6160 fluorescence intensity (a.u.)
25,TCCGTCATACAACCCAAACCTCCGTCATGCCTCAACCATACGGAGTCACCTAGTGCAG,3250 fluorescence intensity (a.u.)
26,TTCCGCTGTGGCGGCGTCCCAATGTCCCACCCACGTAGCCCGGAGTCACCTAGTGCAG,4440 fluorescence intensity (a.u.)
27,AGATGGGTCACCTCGCCGGCGGAAAGGAGACGACACGTTGCGGAGTCACCTAGTGCAG,4730 fluorescence intensity (a.u.)

# Already shown: entries from further up.
row,Sequence,binding signal
2,GTCGTAATAAATATGTTATGGGACGAAAGAGTATCTATTACGGAGTCACCTAGTGCAG,37700 fluorescence intensity (a.u.)
3,CACGCACACCAACTGCTCGCTGCTTATATAGCCTCAGGTCCGGAGTCACCTAGTGCAG,22400 fluorescence intensity (a.u.)
4,ATGTACACACTGATCCAACTAGTTTCACTTACATGTCACTCGGAGTCACCTAGTGCAG,3340 fluorescence intensity (a.u.)

# Remaining list, next part:

row,Sequence,binding signal
1,CGCTAGCTTTATTTAAAATGGAAAGGACACATCACACACTCGGAGTCACCTAGTGCAG,3940 fluorescence intensity (a.u.)
2,GAACTAATCGGCAGTTGGCCCACGCCCTCGCCATGTGTCCCGGAGTCACCTAGTGCAG,3480 fluorescence intensity (a.u.)
3,GAATAAAAGTTCAACATACACGTGTTAATTTCTGATACTCCGGAGTCACCTAGTGCAG,7090 fluorescence intensity (a.u.)
4,TTGATCATCAGAAATAAATGCCAGTGAGAAAACAGCATGGCGGAGTCACCTAGTGCAG,30700 fluorescence intensity (a.u.)
5,GTGAGAACTGAGAGGAGCGTCGGAAGAAGACCGGAAGAAGCGGAGTCACCTAGTGCAG,4580 fluorescence intensity (a.u.)
6,AAAGCAACCAGTTACCATGACTATGCACCCGACACCTGGCCGGAGTCACCTAGTGCAG,3960 fluorescence intensity (a.u.)
7,TTTCGACACCGATAGGCTTCGTCACGACGGGTTTTGTCCACGGAGTCACCTAGTGCAG,4570 fluorescence intensity (a.u.)
8,GGTGACTCTGAAACTGGAGATGCTCCAAGCAACAGAGCCACGGAGTCACCTAGTGCAG,3810 fluorescence intensity (a.u.)
9,ATAATAATTTTAAAATAAGATGATGAGTCAAACGTTGTATCGGAGTCACCTAGTGCAG,5260 fluorescence intensity (a.u.)
10,TGGTCGCGTCCAGTCAGCTCGTCTGCCTTGGCCCGCAGCCCGGAGTCACCTAGTGCAG,6300 fluorescence intensity (a.u.)
11,TTAATTGATCCATATATTTCGCAGATTCTTGTGTTCTTGCCGGAGTCACCTAGTGCAG,14300 fluorescence intensity (a.u.)
12,TATTACTTTGCTGTTTAACTTTGATTTCTGACACTAACATCGGAGTCACCTAGTGCAG,3410 fluorescence intensity (a.u.)
13,ATTGAGCCAGCCGTTATCCAATACAATCGTGACACGTTGTCGGAGTCACCTAGTGCAG,5610 fluorescence intensity (a.u.)
14,CGTGGCCCGTGTGGCCCGCTTCCACAACCTGCGGCCGGCGCGGAGTCACCTAGTGCAG,18800 fluorescence intensity (a.u.)
15,GCGGCGGAGGAAGAGGAAGAGAAGGCGATAGATCTGGTGCCGGAGTCACCTAGTGCAG,33400 fluorescence intensity (a.u.)
16,CCAAAGCTTACTCACCAGTCACAACAAAACTTTTACATAACGGAGTCACCTAGTGCAG,3470 fluorescence intensity (a.u.)
17,TTCTCTACCAGCGGCAGCGGCGGCTGGTAGGGAGGAGGAGCGGAGTCACCTAGTGCAG,4860 fluorescence intensity (a.u.)
18,TCGTCTCCGCCTCCGGCTTCCCCTATCCATTCCCCTCGCCCGGAGTCACCTAGTGCAG,3540 fluorescence intensity (a.u.)
19,CCACCACCGAGCACCGTGGCCGCGTGTGGCGCGCGTGTACCGGAGTCACCTAGTGCAG,4200 fluorescence intensity (a.u.)
20,GCGAGGATTCTTCGCCGACTGCTTCGTGTCATCTCGTCTCCGGAGTCACCTAGTGCAG,4140 fluorescence intensity (a.u.)
21,TTTCGGCCGAAGGCGACGTGACGTAGCCACTAGTAGATCTCGGAGTCACCTAGTGCAG,6150 fluorescence intensity (a.u.)
22,AATCTAACAATGCTTCGGGTGGTGTGGGTGATTTGGTTCACGGAGTCACCTAGTGCAG,3760 fluorescence intensity (a.u.)
23,ACCGCGCTGACTAGACCAGCAGTCCAGCACACAACACTAGCGGAGTCACCTAGTGCAG,5130 fluorescence intensity (a.u.)
24,GACACGCGAGGGACCTCATCGCCCCAACTAATCCGCTTTGCGGAGTCACCTAGTGCAG,34900 fluorescence intensity (a.u.)
25,CAGGCAATGCGTTGCGTTTTCTCACACGTGCTCTCAGCGTCGGAGTCACCTAGTGCAG,4120 fluorescence intensity (a.u.)
26,CCACCGCCGCCACACAGTCCGCTTCGGTTCCCCGTTTCCGCGGAGTCACCTAGTGCAG,65500 fluorescence intensity (a.u.)
27,GAAGGTAAGATCACTTCAATAGAAGAATCGAGAAGAGTGCCGGAGTCACCTAGTGCAG,3550 fluorescence intensity (a.u.)
